Measurements: patent US20060240474A1, “Peptides able to switch between two structural states and their use” (UNIVERSITY OF SUSSEX, priority 2002, published 2006)
No constants are given. Whether binding was seen depends on the method and setting.

Molecular target: CSP-2r (reduced and alkylated)
Assay: sedimentation equilibrium (AUC), 5 C, self-association

B1: CSP-2r (reduced and alkylated) (peptide)
peptide: CGGEIRALKYEIARLKQGGGGKKRALEQKIAALEGGC
modifications: terminal Cys residues reduced and alkylated (iodoacetamide)
binding: no binding
